Assay results as given in US5470830A (Ohmeda Pharmaceutical Products Division Inc., priority 1993, dated 1995).
Strings that start with PEPTIDE1 are HELM notation: dots part the residues, brackets hold end groups and non-standard residues. For some of these results: One purity is given for all peptides; the source may state it once.

How the values were obtained:
[1] = general procedure: peptide synthesis; Fmoc-L-Gln(Mbh)PepSyn KA resin; MBHA resin; Fmoc-L-Gln(Trt)PAC resin; Pfp esters of Fmoc amino acids; DIC preactivation for Boc amino acids; conditions: whole synthesis, 214 nm
[2] = Fmoc solid-phase peptide synthesis in flow; Fmoc-L-Gln(Mbh)PepSyn KA; Pfp esters of Fmoc amino acids; DIC preactivation for Boc amino acids; conditions: whole synthesis
[3] = solid-phase peptide synthesis; conditions: whole synthesis
[4] = Fmoc solid-phase peptide synthesis in flow; Fmoc-L-Gln(Trt)PAC; Pfp esters of Fmoc amino acids; DIC preactivation for Boc amino acids; conditions: whole synthesis

| Substance | final HPLC purity [1] [%] | crude yield [2] [%] | isolated yield [2] [%] | isolated yield [3] [%] | isolated yield [4] [%] |
| --- | --- | --- | --- | --- | --- |
| PEPTIDE1{F.V.F.I.F.T.Y.G.E.L.Q.R.L.Q.E.K.E.R.N.K.G.Q}$$$$V2.0 | >95 | 70 | 27 | – | – |
| PEPTIDE1{F.V.F.I.F.T.Y.G.E.L.Q.R.[am]}$$$$V2.0 | >95 | – | – | 21 | – |
| PEPTIDE1{[NMePhe].V.F.I.F.T.Y.G.E.L.Q.R.L.Q}$$$$V2.0 | >95 | – | – | – | 18 |
